The values below come from article PMC11286746.

Amino acid sequences for entries named in this document (tags omitted).
UniProt Q9UNE7: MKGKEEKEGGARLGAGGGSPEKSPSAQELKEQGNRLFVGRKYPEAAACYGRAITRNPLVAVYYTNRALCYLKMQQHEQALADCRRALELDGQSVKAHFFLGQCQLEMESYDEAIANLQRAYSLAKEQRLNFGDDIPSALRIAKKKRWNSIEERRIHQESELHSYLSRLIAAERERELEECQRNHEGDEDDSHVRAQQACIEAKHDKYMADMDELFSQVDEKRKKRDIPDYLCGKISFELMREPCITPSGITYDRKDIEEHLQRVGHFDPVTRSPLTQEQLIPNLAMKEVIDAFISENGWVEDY

The target in experiment [1] is T1, HA-tagged wild-type BCAT1 (branched-chain amino acid transaminase 1) (UniProt P54687).
T1 sequence: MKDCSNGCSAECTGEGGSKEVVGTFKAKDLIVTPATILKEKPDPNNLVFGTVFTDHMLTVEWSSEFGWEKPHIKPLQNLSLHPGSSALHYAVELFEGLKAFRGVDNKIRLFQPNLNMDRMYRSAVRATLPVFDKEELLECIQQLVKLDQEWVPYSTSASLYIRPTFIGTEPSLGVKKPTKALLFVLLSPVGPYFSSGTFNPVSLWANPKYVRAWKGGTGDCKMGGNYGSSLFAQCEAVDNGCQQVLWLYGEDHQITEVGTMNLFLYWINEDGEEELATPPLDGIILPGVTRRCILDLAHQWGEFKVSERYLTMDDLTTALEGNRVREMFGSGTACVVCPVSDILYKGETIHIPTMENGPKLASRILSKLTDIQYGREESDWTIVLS
The experiment is described as follows: co-IP; U251 cells transfected with HA-BCAT1 and Flag-tagged CHIP (wild type or truncated mutants); NP-40 lysis buffer, 1 ug antibody and protein A/G agarose beads, 4 °C, 8 h; western blot. For orientation: In western blotting, separated proteins are transferred to a membrane and probed.

Experiment [2] has as its target T2, GST-BCAT1 protein (#Ag4574, Proteintech) (UniProt P54687).
T2 sequence: T1 sequence
The experiment is described as follows: pull-down; GST or GST-BCAT1 on glutathione magnetic beads incubated with recombinant CHIP protein at 4 °C for 2 h; washed thrice with PBS; western blot; both purified.

No constants are given. Whether binding was seen depends on the method and setting. For some assays here: In cells and extracts the contact can be indirect. Some results given as binding are weak or reduced against the parent protein; the word gives no strength. Sequences can lack the tags named with a protein.

Turning to “Flag-tagged wild-type CHIP (Carboxyl terminus of Hsc70-interacting protein) (from UniProt Q9UNE7 1-303) (enzyme)”, the binding entry in experiment [1] is reported as “binds”.

Regarding “recombinant CHIP protein (#HY-P71340, MedChemExpress) (from UniProt Q9UNE7 1-303) (enzyme)”, the binding result in experiment [2] was “binds”.
